# Values joined by “and” are separate entries in the source; they are usually repeats but may differ in a detail not shown here. Equal values may be shown once. The campaign covered roughly 580,000 compounds. About 6,100 (1.1%) were called active. This list was built around the results that the source calls inconclusive (neither active nor inactive); the mix of calls is not that of the screen. Calls come from the whole dose curve; as a rule, active = well fitted inhibition curve with a large enough effect; inconclusive = small, poorly fitted or top-dose-only effect, or another doubt; inactive = no such curve, though single readings can be large or run the other way. Where the call is inconclusive, the potency comes from a doubtful curve fit.
# Chains of the proteins cited; added tags and fusions are not shown.
# UniProt P18054, whole entry, looked up: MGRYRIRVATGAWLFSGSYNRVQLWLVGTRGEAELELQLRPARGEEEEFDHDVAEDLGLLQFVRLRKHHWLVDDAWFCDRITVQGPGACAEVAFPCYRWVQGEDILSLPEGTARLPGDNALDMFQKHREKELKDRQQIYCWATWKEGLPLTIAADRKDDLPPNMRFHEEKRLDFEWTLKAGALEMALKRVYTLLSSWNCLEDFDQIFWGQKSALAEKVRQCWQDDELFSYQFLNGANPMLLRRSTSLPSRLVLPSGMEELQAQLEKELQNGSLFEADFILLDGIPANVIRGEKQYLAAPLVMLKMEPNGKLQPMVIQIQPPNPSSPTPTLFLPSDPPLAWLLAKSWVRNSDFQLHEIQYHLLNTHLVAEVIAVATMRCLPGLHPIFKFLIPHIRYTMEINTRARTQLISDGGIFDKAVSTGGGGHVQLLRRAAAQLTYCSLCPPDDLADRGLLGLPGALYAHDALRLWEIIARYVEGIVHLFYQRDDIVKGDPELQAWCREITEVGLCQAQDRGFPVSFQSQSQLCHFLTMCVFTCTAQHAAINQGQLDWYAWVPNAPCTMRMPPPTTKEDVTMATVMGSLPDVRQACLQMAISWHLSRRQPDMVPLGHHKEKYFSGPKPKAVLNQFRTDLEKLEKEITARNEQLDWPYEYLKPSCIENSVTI
# Target: Polyunsaturated fatty acid lipoxygenase ALOX12 (Homo sapiens) (UniProt P18054)
# Experiment: Primary qHTS assay for inhibitors of human arachidonate 12S-lipoxygenase (ALOX12): Round 2
# Conditions: purified 12hLO, xylenol orange hydroperoxide absorbance; activity change, negative = inhibition: at 108 µM (top of the series) unless noted
# In short: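 Hydroperoxide product was detected by ferrous iron/xylenol orange as the 573 to 405 nm absorbance ratio. Arachidonic acid at 40 uM (final) was turned over for 30 min at room temperature by 150 nM human 12hLO, pH 7.0 Hepes buffer, after 15 min compound preincubation.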
# % is set by controls: 0 for no effect and ±100 for the full control effect; potency is the fitted concentration of half-maximal effect.
SMILES,Potency,"activity change, negative = inhibition"
Cc1ccc(NC(=S)NC(NC(=O)c2ccccc2)C(Cl)(Cl)Cl)c(C)c1 (stereo unspecified),"inconclusive: 39.8 µM [inhibitor, partial curve]",–
CN(Cc1cccn1C)CC1CCCCC1,inactive,–
O=C(C(=O)N(Cc1ccccc1)Cc1ccccc1)c1c(-c2ccccc2)[nH]c2ccccc12,"inconclusive: 28.2 µM [inhibitor, full curve, poor fit]",–
O=C(NCCCN1CCCCC1)c1cc(Sc2ccc(Cl)cc2)nc2ccccc12,"inconclusive: 56.2 µM [inhibitor, partial curve, poor fit]",–
Cc1ccc(S(=O)(=O)N2C(c3ccc(Cl)c(Cl)c3)CC=C(C(=O)O)C2c2ccc(Cl)cc2)cc1 (stereo unspecified),inactive,–
Cc1ncc(CO)c2c1Oc1nc(-c3ccccc3)nc(SCC(=O)N(C)c3ccccc3)c1C2,"inconclusive: 35.5 µM [inhibitor, partial curve]",–
Cc1cc(Cl)ccc1OCC(=O)Nc1ccncc1,inactive,–
COCCCNC(=O)C(=O)N/N=C/c1cc2c(cc1Br)OCO2,"inconclusive: 28.2 µM [inhibitor, partial curve, poor fit]",–
Brc1ccccc1Cn1c(-c2cscn2)nc2ccccc21,inactive,–
CN(C)CCNC(=O)C(C)(C)Oc1nn(CCOc2ccccc2)c2ccccc12,"inconclusive: 31.6 µM [inhibitor, full curve, poor fit]",–
Cc1ccc(-c2nn(-c3ccccc3)cc2C2SCC(=O)N2Cc2ccccc2)o1 (stereo unspecified),active: 31.6 µM,–
COc1ccc(C2CC(=O)c3cnc(N4CCN(Cc5ccccc5)CC4)nc3C2)cc1 (stereo unspecified),inactive,–
CCCCN(CC)c1ccc(NC(=O)c2ccccc2F)cc1C(=O)O,"inconclusive: 50.1 µM [inhibitor, partial curve, poor fit]",–
CCN1C(=NCCOC)N[C@@H](c2cccs2)C(C(=O)OC)=C1C,"inconclusive: 89.1 µM [inhibitor, single point]",–
O=C(NC(Cc1c[nH]c2ccccc12)C(=O)O)c1ccccc1F (stereo unspecified),"inconclusive: 79.4 µM [inhibitor, partial curve, poor fit]",–
O=C(OCC(=O)N1CCCC1)c1cc(=O)c2ccccc2o1,"inconclusive: 31.6 µM [inhibitor, partial curve, poor fit]",–
COc1ccc(OC)c(S(=O)(=O)N(C(C)=O)c2ccc3oc(=O)sc3c2)c1,"inconclusive: 7.94 µM [inhibitor, full curve, poor fit]",–
C[C@H]1O[C@@H](n2cc(F)c(=O)[nH]c2=O)[C@H](O)[C@H]1O,–,inconclusive: -57.4% [inhibitor] [at 57.4 µM]
O=C(NC(=S)N1CCCCCC1)C1CC1,"inconclusive: 50.1 µM [inhibitor, partial curve, poor fit]",–
Cc1ccccc1CNC(=O)Cn1ccc2c(C)nn(C)c2c1=O,inactive,–
CCn1c(CSc2n[nH]c(-c3ccc(C)cc3)n2)nc2cc(S(=O)(=O)N(C)C)ccc21,inactive,–
CN(C)c1ccc(NC(=O)c2ccc(N)cc2)cc1,inactive,–

SMILES,Potency,"activity change, negative = inhibition"
O=C(CCc1ncc(-c2ccccc2Cl)o1)NCc1ccccc1Cl,inactive,–
COc1ccc(C2CCc3cc4c(cc3C2=NO)OCO4)cc1OC (stereo unspecified),inactive,–
COc1ccc(S(=O)(=O)NCC(c2ccc(F)cc2)N2CCN(C)CC2)cc1 (stereo unspecified),"inconclusive: 89.1 µM [inhibitor, partial curve, poor fit]",–
OCCCc1cn(Cc2ccccc2)c2ccccc12,inactive,–
CCC1(N2CCN(S(=O)(=O)c3ccc(F)c(C)c3)CC2)CCN(C(=O)NC)C1 (stereo unspecified),"inconclusive: 14.1 µM [inhibitor, full curve, poor fit]",–
CN(C)C(=O)c1nc(-c2cccc(C(F)(F)F)c2)c2ccccn12,"inconclusive: 25.1 µM [inhibitor, full curve]",–
CCOc1ncccc1C(=O)N(CCC(C)C)c1c(N)n(Cc2ccccc2)c(=O)[nH]c1=O,"inconclusive: 126 µM [inhibitor, single point]",–
Cc1noc2ncnc(NCc3cccc(Cl)c3)c12,inactive,–
Cc1ccc(S(=O)(=O)N2CCN(C(=O)CC(C)(C)C)CC2)cc1,"inconclusive: 126 µM [inhibitor, single point]",–
Cc1ccc(COC(=O)c2nnn(-c3ccccc3)c2C)c(C)c1,inactive,–
Oc1cccc(Nc2ncnc3sc4c(c23)CCCC4)c1,"inconclusive: 17.8 µM [inhibitor, partial curve, poor fit]",–
CCN(CC)CCn1c2c(c(SCC(=O)Nc3cccc(C(C)=O)c3)nc1=O)CCCC2,"inconclusive: 50.1 µM [inhibitor, partial curve, poor fit]",–
COc1ccccc1N1C(=O)CC(N(O)c2ccccc2)C1=O (stereo unspecified),"inconclusive: 35.5 µM [inhibitor, partial curve, poor fit]",–
S=c1[nH]c2nc(Cl)c(Cl)nc2[nH]1,"inconclusive: 79.4 µM [inhibitor, partial curve, poor fit]",–
CCC(CC)C(O)(C#Cc1ccccc1)c1ccccc1 (stereo unspecified),inactive,–
CN=C1S/C(=C/c2cn(CC(=O)OC)c3ccccc23)C(=O)N1C,active: 28.2 µM,–
COc1ccc(N=Cc2c(O)n(-c3cccc(C)n3)c(=O)c3ccccc23)cc1,"inconclusive: 126 µM [inhibitor, partial curve, poor fit]",–
O=C1C=C(c2n[nH]nc2-c2ccccc2)C[C@@H](c2ccc(F)cc2)C1,inactive,–
COc1cccc(-n2cnnc2SCc2csc(CC(=O)Nc3ccc(C)cc3)n2)c1,"inconclusive: 89.1 µM [inhibitor, single point]",–
CC(=O)Nc1ccc(NC(=O)Cn2c(-c3ccc(F)cc3)cnc2SCC(=O)Nc2c(C)cccc2C)cc1,"inconclusive: 79.4 µM [inhibitor, partial curve, poor fit]",–
O=C(CCc1ccc(O)cc1)c1c(O)cc(O)cc1O,"inconclusive: 2.17 µM [inhibitor, full curve] and inconclusive: 50.1 µM [inhibitor, partial curve, poor fit] and inconclusive: 39.8 µM [inhibitor, partial curve, poor fit]",–
Clc1ccccc1CSc1ccnc(SCc2ccccc2Cl)n1,inactive,–

# Three entries out of the list, sorted by molar mass, descending:
SMILES,Potency,"activity change, negative = inhibition"
Brc1ccccc1Cn1c(-c2cscn2)nc2ccccc21,inactive,–
COc1ccc(C2CCc3cc4c(cc3C2=NO)OCO4)cc1OC (stereo unspecified),inactive,–
O=C(OCC(=O)N1CCCC1)c1cc(=O)c2ccccc2o1,"inconclusive: 31.6 µM [inhibitor, partial curve, poor fit]",–

# Remaining list, next part

SMILES,Potency,"activity change, negative = inhibition"
CC(C)Cn1c(SCc2noc(-c3ccccc3Cl)n2)nnc1N1CCOCC1,inactive,–
CC(OC(=O)/C=C/c1cccc2ccccc12)C(=O)NC(N)=O (stereo unspecified),"inconclusive: 44.7 µM [inhibitor, single point]",–
Nc1ccc(C(=O)OC2CCCC2)cc1,"inconclusive: 10 µM [inhibitor, full curve, poor fit]",–
Cc1ccc(S(=O)(=O)NCc2ccc(C(=O)N3CCN(c4ccc([N+](=O)[O-])cc4)CC3)cc2)cc1,inactive,–
COc1ccc(S(=O)(=O)NCCN2CCOCC2)cc1[N+](=O)[O-],"inconclusive: 89.1 µM [inhibitor, partial curve, poor fit]",–
CCOC(=O)C1=C(C)N=c2s/c(=C\c3ccc(OCC(=O)O)cc3)c(=O)n2C1c1ccc(Cl)cc1 (stereo unspecified),"inconclusive: 39.8 µM [inhibitor, partial curve, poor fit]",–
Cc1[nH]c2ccccc2c1C(C[N+](=O)[O-])c1cccc(O)c1 (stereo unspecified),inactive,–
COc1ccc(Cn2nc(-c3ccc(F)cc3OC)ccc2=O)cc1,"inconclusive: 0.282 µM [inhibitor, full curve, poor fit]",–
CCOC(=O)c1sc(-c2ccc3c(c2)OCCO3)cc1NC(=O)c1ccco1,"inconclusive: 0.0794 µM [inhibitor, full curve, poor fit]",–
Cc1nn(-c2ccccc2)c(N2CCCC2)c1/C=N/NC(=S)Nc1cc(C(F)(F)F)ccc1Cl,"inconclusive: 50.1 µM [inhibitor, partial curve, poor fit]",–
COc1cccc(C2=CC(c3ccc(N(C)C)cc3)n3nnnc3N2)c1 (stereo unspecified),inactive,–
Cc1ccc(S(=O)(=O)N2CCN=C2SCc2ccc(Cl)c(Cl)c2)cc1,"inconclusive: 0.316 µM [inhibitor, full curve, poor fit]",–
COc1ccc(S(=O)(=O)N2CCCN(CCC(=O)Nc3cccc(C(F)(F)F)c3)CC2)cc1,"inconclusive: 20 µM [inhibitor, full curve, poor fit]",–
Fc1ccc(F)c(C2=NNC(=NCC3CCCO3)SC2)c1 (stereo unspecified),"inconclusive: 50.1 µM [inhibitor, partial curve, poor fit]",–
Cc1ccc(C(=O)OCC(=O)NCCN2C(=O)CSC2=O)cc1,inactive,–
COc1ccc(CN2CCC(N3Cc4ccccc4C3=O)CC2)cc1,"inconclusive: 112 µM [inhibitor, single point]",–
COc1cccc(-c2nc(NCc3ccc(OC)cc3OC)c3ccccc3n2)c1,"inconclusive: 44.7 µM [inhibitor, partial curve, poor fit]",–
O=C(c1ccc2c(c1)C(=O)N(Cc1ccncc1)C2=O)N1CCN(S(=O)(=O)c2ccc(OC(F)(F)F)cc2)CC1,"inconclusive: 0.355 µM [inhibitor, full curve, poor fit]",–
CC(NC(=O)c1cccs1)c1ccc(Br)cc1 (stereo unspecified),"inconclusive: 112 µM [inhibitor, single point]",–
CCOC(=O)c1c(=O)n(O)c2ccc(C)cc2[n+]1[O-],"inconclusive: 44.7 µM [inhibitor, partial curve, poor fit]",–
Cc1ccc2c(=O)c(-c3nc(-c4cccc(F)c4)no3)cn(CC(=O)NCc3ccco3)c2n1,active: 10 µM,–
N#CC(/C(=N/S(=O)(=O)c1ccccc1)c1ccccc1)c1nc2ccccc2s1 (stereo unspecified),"inconclusive: 0.891 µM [inhibitor, partial curve, poor fit]",–

# From PubChem BioAssay AID1671190 (National Center for Advancing Translational Sciences (NCATS), 2021)
